Measurements: paper PMC10160066
No constants are given. Whether binding was seen depends on the method and setting. In cells and extracts the contact can be indirect. For some of these results: Binding calls can cover weak binding; strength is not graded here. For some of these results: Sequences can lack the tags named with a protein. Each block holds one molecule with its values, some of them ahead of it.

Legend:
Pto-FLAG (tomato) = molecular target: T1, Pto-FLAG (tomato) (UniProt Q40234); test: co-IP + native gel or EMSA; Prf-Myc and Pto-FLAG expressed from their native promoters in N. benthamiana, with or without AvrPto or AvrPtoB; IP with α-FLAG agarose beads; eluted fraction run on blue native PAGE (4-16% NativePAGE Bis-Tris)
T1 sequence: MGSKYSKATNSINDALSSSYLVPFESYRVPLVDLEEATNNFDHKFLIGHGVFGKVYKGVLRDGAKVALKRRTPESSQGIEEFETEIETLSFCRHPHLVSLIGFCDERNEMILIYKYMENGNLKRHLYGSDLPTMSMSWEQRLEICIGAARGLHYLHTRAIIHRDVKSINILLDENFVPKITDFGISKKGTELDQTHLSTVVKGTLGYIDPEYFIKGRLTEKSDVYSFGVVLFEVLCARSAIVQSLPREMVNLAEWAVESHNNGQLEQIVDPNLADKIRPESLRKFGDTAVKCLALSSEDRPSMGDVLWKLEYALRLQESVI

TFT1 (tomato) = molecular target: T2, TFT1 (tomato) (UniProt P93206); test: co-IP + split reporter; series of co-immunoprecipitation and split-luciferase experiments with Prf and the TFT isoforms in N. benthamiana; which of the two Supplementary Fig. 1b shows is not told
T2 sequence: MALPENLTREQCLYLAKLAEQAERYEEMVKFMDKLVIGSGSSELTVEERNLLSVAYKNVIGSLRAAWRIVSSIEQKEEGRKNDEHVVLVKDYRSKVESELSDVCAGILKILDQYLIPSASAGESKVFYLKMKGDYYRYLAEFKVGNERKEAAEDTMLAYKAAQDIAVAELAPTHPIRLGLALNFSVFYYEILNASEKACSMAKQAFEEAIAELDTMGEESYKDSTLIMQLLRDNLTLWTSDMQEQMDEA

TFT3 (tomato) = molecular target: T3, TFT3 (tomato) (UniProt P93209); test: as above
T3 sequence: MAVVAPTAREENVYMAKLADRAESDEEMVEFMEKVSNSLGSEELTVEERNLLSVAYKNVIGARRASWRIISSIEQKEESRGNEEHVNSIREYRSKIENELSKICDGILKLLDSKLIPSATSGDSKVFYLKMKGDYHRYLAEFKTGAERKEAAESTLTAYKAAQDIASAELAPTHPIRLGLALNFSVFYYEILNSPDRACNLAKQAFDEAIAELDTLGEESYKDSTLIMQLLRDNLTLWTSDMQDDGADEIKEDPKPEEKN

TFT3-GFP (tomato) = molecular target: T4, TFT3-GFP (tomato) (UniProt P93209); test: co-IP; constructs co-expressed in N. benthamiana leaves; extract incubated with GFP-Trap, Myc-Trap, anti-FLAG M2 or anti-HA agarose beads for 2 h at 4 °C, five washes, immunoblot; the Prf-Pto pair was tested with and without AvrPto co-expressed
T4 sequence: T3 sequence

[1] = molecular target: T5, TFT3, split-luciferase fusion (tomato) (UniProt P93209); test: split reporter; split-luciferase; NLUC and CLUC fusions co-infiltrated into N. benthamiana leaves; luminescence imaged 3 days post-infiltration
T5 sequence: T3 sequence

Prf-HA (tomato) = test: co-IP; constructs co-expressed in N. benthamiana leaves; extract incubated with GFP-Trap, Myc-Trap, anti-FLAG M2 or anti-HA agarose beads for 2 h at 4 °C, five washes, immunoblot; the Prf-Pto pair was tested with and without AvrPto co-expressed

Molecule: Prf-Myc (tomato) (receptor)
binding (Pto-FLAG (tomato)): binds

Molecule: N-terminal-deleted autoactive version of MAPKKKα, HA tagged (tomato) (domain or fragment)
binding (TFT3-GFP (tomato)): binds

Molecule: MAPKKKα, split-luciferase fusion (tomato) (enzyme)
binding [1]: binds

Molecule: MAPKKKα-HA (tomato) (enzyme)
binding (TFT3-GFP (tomato)): binds

Next, values leading:

binding (TFT1 (tomato)): no binding | binding (TFT3 (tomato)): no binding
Molecule: Prf (tomato) (receptor)

binding (Prf-HA (tomato)): binds
B1: Pto-FLAG (enzyme, UniProt Q40234 1-321)
chain: T1 sequence
